Molecular target: Stromelysin-1 (Homo sapiens, UniProt P08254)

Protein sequences, listed by entry. Tags and fused reporters are not part of them. Lines headed by an entry give the natural chain unless they say otherwise; changes in a name come on top.
UniProt P08254: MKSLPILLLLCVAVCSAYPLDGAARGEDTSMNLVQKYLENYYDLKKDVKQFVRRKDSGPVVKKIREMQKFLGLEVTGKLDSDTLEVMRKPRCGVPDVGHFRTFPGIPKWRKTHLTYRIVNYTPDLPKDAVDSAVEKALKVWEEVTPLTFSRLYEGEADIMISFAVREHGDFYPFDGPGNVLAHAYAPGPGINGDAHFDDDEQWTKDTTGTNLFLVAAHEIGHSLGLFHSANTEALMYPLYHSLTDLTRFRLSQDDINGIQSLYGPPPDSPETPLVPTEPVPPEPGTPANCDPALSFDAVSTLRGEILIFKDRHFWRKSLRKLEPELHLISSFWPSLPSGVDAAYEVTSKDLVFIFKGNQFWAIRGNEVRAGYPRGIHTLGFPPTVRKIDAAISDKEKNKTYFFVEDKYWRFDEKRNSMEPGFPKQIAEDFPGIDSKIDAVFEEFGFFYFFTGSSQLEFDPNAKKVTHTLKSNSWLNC

SMILES | Ki [µM]
COc1ccc(CC[C@H](N[C@H](C)C(=O)O)C(=O)N[C@@H](CC(C)C)C(=O)Nc2ccccc2)cc1OC | > 10
COc1ccccc1CC[C@H](N[C@H](C)C(=O)O)C(=O)N[C@@H](CC(C)C)C(=O)Nc1ccccc1 | > 10
Cc1cc(C)cc(CC[C@H](N[C@H](C)C(=O)O)C(=O)N[C@@H](CC(C)C)C(=O)Nc2ccccc2)c1 | > 10
Cc1ccccc1CC[C@H](N[C@H](C)C(=O)O)C(=O)N[C@@H](CC(C)C)C(=O)Nc1ccccc1 | > 10
